The whole screen tested about 290,000 compounds, of which about 110 (0.038%) were called active. Inconclusive means that the source gave no clear call. Such entries were picked first, then a sample of the others. Calls follow the shape of the dose curve; as a rule, active = well fitted inhibition curve with a large enough effect in the polarisation, with a control signal flat (not every such curve was filed as active); inconclusive = small, poorly fitted or top-dose-only effect, or effect the other way, or a change in a side signal; inactive = no such curve, though single readings can be large or run the other way; the % refers to the polarisation. Where the call is inconclusive, the potency comes from a doubtful curve fit. “Side channel” marks fits to a control or component signal instead of the main read-out.
Each molecule was assayed against Histone-lysine N-methyltransferase 2A (Homo sapiens) (UniProt Q03164) (assay: qHTS Fluorescence Polarization Assay for Inhibitors of MLL CXXC domain - DNA interaction). Settings: MLL-CXXC / FITC-HOXA9 DNA fluorescence polarization; activity change, negative = inhibition: at 115 µM (top of the series).
Outline: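 Fluorescence polarization: 7 uM MLL-CXXC (stock) preincubated 5 min with compounds, then 50 nM fluorescein-HOX-A9 DNA (stock) added; 30 min ambient. Buffer 50 mM Tris-HCl pH 7.5, 50 mM NaCl, 1 mM DTT, 0.05% BSA.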
Potency is read from the fitted curve at half-maximal effect.

Protein sequences, listed by entry. Tags and fused reporters are not part of them.
UniProt Q03164, whole entry, looked up: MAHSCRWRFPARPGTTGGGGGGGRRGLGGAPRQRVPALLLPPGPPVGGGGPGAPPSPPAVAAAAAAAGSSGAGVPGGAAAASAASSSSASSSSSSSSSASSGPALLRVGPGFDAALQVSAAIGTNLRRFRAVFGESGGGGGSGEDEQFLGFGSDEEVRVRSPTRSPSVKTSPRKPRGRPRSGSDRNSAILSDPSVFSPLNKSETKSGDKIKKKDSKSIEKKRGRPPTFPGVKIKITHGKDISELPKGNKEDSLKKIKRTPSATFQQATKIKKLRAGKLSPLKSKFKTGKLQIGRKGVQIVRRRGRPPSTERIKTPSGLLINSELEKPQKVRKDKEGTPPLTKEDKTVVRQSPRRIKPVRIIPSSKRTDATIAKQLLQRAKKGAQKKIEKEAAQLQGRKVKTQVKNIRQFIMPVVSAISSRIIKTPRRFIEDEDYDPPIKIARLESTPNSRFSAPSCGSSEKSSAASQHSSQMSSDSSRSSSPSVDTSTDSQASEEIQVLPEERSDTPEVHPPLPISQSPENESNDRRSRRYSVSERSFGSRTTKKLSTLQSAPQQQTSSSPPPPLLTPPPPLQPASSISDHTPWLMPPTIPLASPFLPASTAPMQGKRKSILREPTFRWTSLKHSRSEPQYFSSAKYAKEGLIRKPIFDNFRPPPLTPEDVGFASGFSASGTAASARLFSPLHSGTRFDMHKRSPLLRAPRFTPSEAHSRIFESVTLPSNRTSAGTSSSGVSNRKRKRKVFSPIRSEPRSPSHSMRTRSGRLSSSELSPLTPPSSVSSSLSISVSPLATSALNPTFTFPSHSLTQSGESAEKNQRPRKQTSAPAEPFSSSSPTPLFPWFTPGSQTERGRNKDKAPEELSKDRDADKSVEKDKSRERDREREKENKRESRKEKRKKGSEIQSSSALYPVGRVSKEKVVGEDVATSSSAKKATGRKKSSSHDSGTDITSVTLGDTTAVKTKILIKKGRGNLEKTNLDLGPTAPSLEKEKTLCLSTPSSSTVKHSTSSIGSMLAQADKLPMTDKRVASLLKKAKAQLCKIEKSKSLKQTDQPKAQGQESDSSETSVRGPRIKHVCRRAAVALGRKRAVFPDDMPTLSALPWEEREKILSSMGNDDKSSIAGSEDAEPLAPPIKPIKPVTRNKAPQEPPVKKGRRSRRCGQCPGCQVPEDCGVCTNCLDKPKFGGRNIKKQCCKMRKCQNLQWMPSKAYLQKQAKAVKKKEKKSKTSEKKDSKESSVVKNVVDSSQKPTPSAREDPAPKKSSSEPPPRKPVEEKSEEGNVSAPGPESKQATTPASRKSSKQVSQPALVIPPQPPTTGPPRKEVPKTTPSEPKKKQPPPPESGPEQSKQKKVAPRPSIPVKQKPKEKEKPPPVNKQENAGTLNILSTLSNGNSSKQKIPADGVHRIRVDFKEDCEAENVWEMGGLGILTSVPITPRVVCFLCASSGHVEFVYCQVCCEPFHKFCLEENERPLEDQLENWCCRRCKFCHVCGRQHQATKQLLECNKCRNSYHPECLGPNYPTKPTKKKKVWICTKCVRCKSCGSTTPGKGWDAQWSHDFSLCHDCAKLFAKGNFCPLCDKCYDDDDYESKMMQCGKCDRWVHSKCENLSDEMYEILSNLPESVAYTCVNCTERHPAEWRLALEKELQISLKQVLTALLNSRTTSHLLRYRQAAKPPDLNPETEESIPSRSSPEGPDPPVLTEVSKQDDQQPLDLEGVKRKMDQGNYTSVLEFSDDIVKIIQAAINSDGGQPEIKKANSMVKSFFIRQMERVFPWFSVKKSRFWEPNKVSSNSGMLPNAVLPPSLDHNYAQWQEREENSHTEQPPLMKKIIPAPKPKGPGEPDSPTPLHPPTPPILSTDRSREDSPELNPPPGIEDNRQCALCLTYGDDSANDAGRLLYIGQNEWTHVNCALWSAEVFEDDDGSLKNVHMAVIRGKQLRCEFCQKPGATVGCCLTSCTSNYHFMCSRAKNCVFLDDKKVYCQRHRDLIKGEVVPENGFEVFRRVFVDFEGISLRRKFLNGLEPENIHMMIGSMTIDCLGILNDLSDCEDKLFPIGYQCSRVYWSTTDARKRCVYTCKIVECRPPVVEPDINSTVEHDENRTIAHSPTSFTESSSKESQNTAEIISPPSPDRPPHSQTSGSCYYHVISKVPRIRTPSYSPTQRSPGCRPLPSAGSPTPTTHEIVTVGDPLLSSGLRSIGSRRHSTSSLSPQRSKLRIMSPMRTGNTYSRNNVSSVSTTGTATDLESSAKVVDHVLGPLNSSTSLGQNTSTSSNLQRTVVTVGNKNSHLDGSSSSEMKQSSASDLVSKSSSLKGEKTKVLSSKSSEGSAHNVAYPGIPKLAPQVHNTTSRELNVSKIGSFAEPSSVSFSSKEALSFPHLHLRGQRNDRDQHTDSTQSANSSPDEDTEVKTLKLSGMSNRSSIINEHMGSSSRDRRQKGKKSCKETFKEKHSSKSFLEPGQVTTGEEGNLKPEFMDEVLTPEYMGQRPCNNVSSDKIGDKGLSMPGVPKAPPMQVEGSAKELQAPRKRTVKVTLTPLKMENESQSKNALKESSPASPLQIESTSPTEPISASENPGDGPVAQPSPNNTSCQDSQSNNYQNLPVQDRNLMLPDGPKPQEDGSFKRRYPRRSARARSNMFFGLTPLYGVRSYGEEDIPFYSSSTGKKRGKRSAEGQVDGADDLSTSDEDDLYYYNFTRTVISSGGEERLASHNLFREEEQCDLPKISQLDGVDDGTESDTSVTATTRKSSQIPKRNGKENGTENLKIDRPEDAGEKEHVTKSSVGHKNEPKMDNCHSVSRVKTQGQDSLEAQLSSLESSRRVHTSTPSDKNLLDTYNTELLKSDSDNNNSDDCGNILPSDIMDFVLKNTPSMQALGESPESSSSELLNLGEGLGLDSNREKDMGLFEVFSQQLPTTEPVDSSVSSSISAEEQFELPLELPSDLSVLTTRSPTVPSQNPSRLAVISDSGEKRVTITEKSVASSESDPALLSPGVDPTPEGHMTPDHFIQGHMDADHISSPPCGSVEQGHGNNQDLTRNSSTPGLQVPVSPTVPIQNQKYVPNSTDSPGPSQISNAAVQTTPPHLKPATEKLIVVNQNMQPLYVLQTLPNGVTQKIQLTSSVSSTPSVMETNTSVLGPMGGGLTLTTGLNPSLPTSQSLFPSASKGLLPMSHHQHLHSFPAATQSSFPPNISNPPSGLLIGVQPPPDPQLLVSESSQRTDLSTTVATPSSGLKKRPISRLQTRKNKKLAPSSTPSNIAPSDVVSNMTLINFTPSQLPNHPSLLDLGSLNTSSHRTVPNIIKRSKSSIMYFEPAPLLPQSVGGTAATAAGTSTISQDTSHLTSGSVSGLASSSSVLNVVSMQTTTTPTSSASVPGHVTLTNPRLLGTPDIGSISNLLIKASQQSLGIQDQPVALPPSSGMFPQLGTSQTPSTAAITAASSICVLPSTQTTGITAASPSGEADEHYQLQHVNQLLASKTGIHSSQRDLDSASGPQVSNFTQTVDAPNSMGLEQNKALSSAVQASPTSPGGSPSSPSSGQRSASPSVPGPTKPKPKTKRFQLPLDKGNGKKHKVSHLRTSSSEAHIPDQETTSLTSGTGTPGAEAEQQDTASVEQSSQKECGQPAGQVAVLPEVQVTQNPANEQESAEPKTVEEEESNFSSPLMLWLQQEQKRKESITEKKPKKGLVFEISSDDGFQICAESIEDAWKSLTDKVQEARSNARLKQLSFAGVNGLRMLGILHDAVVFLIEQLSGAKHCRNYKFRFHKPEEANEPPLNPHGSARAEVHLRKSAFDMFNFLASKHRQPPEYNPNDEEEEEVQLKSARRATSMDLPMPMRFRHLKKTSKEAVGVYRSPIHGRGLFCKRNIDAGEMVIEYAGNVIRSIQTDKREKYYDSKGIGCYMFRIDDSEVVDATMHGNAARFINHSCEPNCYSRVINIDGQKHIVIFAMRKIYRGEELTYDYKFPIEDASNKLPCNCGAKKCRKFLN

Structure (SMILES)	Potency	activity change, negative = inhibition
CCCCc1ccc(NC(=O)Nc2cccnc2)cc1	inconclusive: 70.8 µM [quencher, side channel, single point]	
CC(Sc1nnc(-c2ccco2)n1C)C(=O)N1C(C)CCCC1C (stereo not given)	inconclusive: 12.6 µM [fluorescent, side channel, full curve, poor fit]	
CCCSc1nnc(NC(=O)c2sc3nc(-c4cccs4)ccc3c2N)s1	inconclusive: 7.08 µM [fluorescent, side channel, partial curve]	
O=C(Oc1cccc2cccnc12)c1ccccc1		inactive: -18%
CC(C)(C)n1ncc2c(=O)n(CC(=O)c3ccc(Cl)cc3)cnc21	inconclusive: 70.8 µM [fluorescent, side channel, single point]	
COc1cccc(/C=C2\SC(=O)NC2=O)c1OCc1ccc(C(=O)O)cc1	inconclusive: 56.2 µM [inhibitor, single point]	
NS(=O)(=O)c1ccc(Nc2nc(-c3cccc([N+](=O)[O-])c3)cs2)cc1	inconclusive: 39.8 µM [quencher, side channel, single point]	
Cc1ccc(S(=O)(=O)CCc2ccncc2)cc1	inconclusive: 14.1 µM [fluorescent, side channel, single point]	
COC(=O)c1nn(-c2ccc3c(c2)CCN3C(C)=O)cc1O		inactive: -8.81%
COc1ccc(NC(=S)NCCc2c(C)[nH]c3ccc(OC)cc23)cc1	inconclusive: 11.2 µM [fluorescent, side channel, partial curve]	
O=C(Nc1ccc(N2CCN(C(=O)c3ccccc3)CC2)c(Cl)c1)c1ccc(Br)o1		inactive: -6.52%
Nc1ccc2c3c(cccc13)C(=O)NC2=O	inconclusive: 5.62 µM [fluorescent, side channel, full curve]	
COCCSc1ccccc1C(=O)Nc1ccncc1		inactive: 2.61%
CC(=O)Oc1cc2cccc(OC(C)=O)c(=O)c2c(OC(C)=O)c1OC(C)=O	inconclusive: 35.5 µM [inhibitor, partial curve]	
CCOC(=O)C1=C(c2ccccc2)NC(N)=NC1c1ccc(OCc2ccc(Cl)cc2)c(OC)c1 (stereo not given)	inconclusive: 31.6 µM [quencher, partial curve]	
COc1cccc(NC(=O)c2cc(-c3ccc(C)o3)nc3ccccc23)c1	inconclusive: 31.6 µM [fluorescent, side channel, partial curve]	
O=C(NC(=S)Nc1nc(-c2ccccc2)cs1)c1cccs1	inconclusive: 3.16 µM [fluorescent, side channel, partial curve]	
CCOC(=O)N1CCN(Cc2ccccn2)CC1		inactive: -0.517%
CC(C)Sc1ccc([N+](=O)[O-])cc1C(=O)Nc1ccncc1	inconclusive: 1 µM [inhibitor, full curve, poor fit]	
COc1cc(/C=C2\SC(=S)N(NS(=O)(=O)c3ccc(C)cc3)C2=O)ccc1O	inconclusive: 28.2 µM [fluorescent, side channel, partial curve]	
COc1ccc(-c2cc(C(F)(F)F)nc(S(=O)(=O)CCCC(=O)Nc3cccnc3Cl)n2)cc1OC	inconclusive: 31.6 µM [quencher, side channel, single point]	
CN(C(=O)COC(=O)CNC(=O)c1ccc2ccccc2c1)c1c(N)n(Cc2ccccc2)c(=O)[nH]c1=O	inconclusive: 63.1 µM [fluorescent, side channel, single point]	

Structure (SMILES)	Potency	activity change, negative = inhibition
O=C(CSc1nc2sc3c(c2c(=O)n1-c1ccccc1)CCCC3)N/N=C/c1ccccc1C(=O)O	inconclusive: 39.8 µM [inhibitor, single point]	
O=CN/C=C/c1cc(O)ccc1O		inactive: 3.93%
CC(C)Cn1c(/C=N/Nc2nc3ccccc3[nH]2)nc2ccccc21	inconclusive: 35.5 µM [fluorescent, side channel, single point]	
CCCCC(O)(CCCC)C(=O)NN(C(=O)OC)c1ccccc1	inconclusive: 31.6 µM [inhibitor, single point]	
Cc1ccc2oc3nc(C)c(C(=O)O)cc3c(=O)c2c1		inactive: 0.154%
C=CCNCCCCOc1ccc(OCc2ccccc2)cc1		inactive: 8.98%
O=C1OC(/C=C/c2ccc(Cl)cc2Cl)=NC/1=C\c1cccs1	inconclusive: 31.6 µM [inhibitor, single point]	
CCOC(=O)c1ccc(-n2c(=O)[nH]c3ccccc3c2=O)cc1		inactive: 3.07%
CC(=O)c1cccc(NC(=O)NNC(=O)c2ccc(-c3ccccc3)cc2)c1	inconclusive: 12.6 µM [fluorescent, side channel, single point]	
COc1ccc(NC(=O)c2ccc(-c3ccccc3)cc2)cc1NS(=O)(=O)c1ccc(F)cc1	inconclusive: 14.1 µM [inhibitor, single point]	
CCCCN(C)C(=O)Cn1ncc2c3ccccc3n(CCC)c2c1=O	inconclusive: 44.7 µM [inhibitor, single point]	
O=c1[nH]c(Cn2nnc(-c3ccccc3)n2)nc2scc(-c3ccccc3)c12		inactive: 4.56%
COc1ccccc1N1N=C(C(=O)c2ccccc2)C2C(=O)N(c3ccc(Br)cc3)C(=O)C21 (stereo not given)	inconclusive: 79.4 µM [fluorescent, side channel, single point]	
Cc1ccc(S(=O)(=O)Nc2ccc(Cl)cc2C(=O)c2ccc(F)cc2)cc1	inconclusive: 56.2 µM [inhibitor, single point]	
Cn1nc(-c2ccc(C(=O)NCCO)cc2)c2ccccc2c1=O		inactive: -2.67%
CC1(C)CC(N2CCN(Cc3ccccc3)CC2)=CC(=[N+]2CCCCC2)C1		inactive: -6%
CCN(CC(=O)NCc1ccc(Cl)cc1)C(=O)CSc1ccc(Br)cc1	inconclusive: 25.1 µM [fluorescent, side channel, partial curve, poor fit]	
COc1cccc(/C=C2\Oc3ccc(O)cc3C2=O)c1O	inconclusive: 10 µM [fluorescent, side channel, single point]	
COC(=O)c1ccc2c(=O)[nH]c(CN3c4ccccc4CC3C)nc2c1 (stereo not given)		inactive: 6.82%
C/C(=N\Nc1ccc2nncn2n1)c1ccccn1	inconclusive: 15.8 µM [fluorescent, side channel, partial curve]	
O=C(NCCc1csc(-c2ccccc2)n1)c1c(F)cccc1F		inactive: 0.22%

Structure (SMILES)	Potency	activity change, negative = inhibition
CN1CCN(c2cc3c(cc2F)c(=O)c(C(=O)O)cn3-c2ccc(F)cc2)CC1	inconclusive: 39.8 µM [inhibitor, partial curve]	
COc1cc(OC)c(OC)cc1/C=C1\CCC/C(=C\c2cc(OC)c(OC)cc2OC)C1=O	inconclusive: 28.2 µM [fluorescent, side channel, partial curve]	
C/C(=N\NC(=O)CNc1ccc(F)cc1)c1cc2ccccc2o1	inconclusive: 14.1 µM [fluorescent, side channel, full curve, poor fit]	
CCOC(=O)Nc1ccc(NCc2ccc(F)cc2)nc1N	inconclusive: 35.5 µM [fluorescent, side channel, partial curve]	
Cc1cc(C2=NNC(=NC3CCCCC3)SC2)c(C)n1-c1c(C)n(C)n(-c2ccccc2)c1=O	inconclusive: 28.2 µM [quencher, side channel, single point]	
CC[n+]1c(/C=C/c2ccc(N(C)C)cc2)ccc2ccccc21	inconclusive: 31.6 µM [quencher, side channel, partial curve]	
O=C(Nc1cccc(Cl)c1)c1csc(-c2ccccc2)n1		inactive: -3.38%
c1csc(-c2ccc3ccccc3n2)c1		inactive: -8.5%
Cc1cccc(-c2ccc(NC(=O)C3CCN(CC4CC4)CC3)cc2)c1	inconclusive: 35.5 µM [quencher, side channel, single point]	
Cn1nnnc1SCC(=O)N1CCCCC1		inactive: -2.17%
CC(C)(C)C(=O)Cn1nc(Cl)nc1Cl	inconclusive: 70.8 µM [fluorescent, side channel, single point]	
Nc1c(C(=O)N/N=C/c2ccccc2Cl)oc2nc(-c3ccccc3)cc(-c3ccco3)c12	inconclusive: 39.8 µM [fluorescent, side channel, partial curve]	
Cn1cccc1C(=O)NNC(=O)COc1ccccc1F	inconclusive: 14.1 µM [fluorescent, side channel, single point]	
Cc1ccc(N2CCOCC2)c2c1C(=O)c1ccccc1C2=O		inactive: -20%
COc1ccc(N2CCN(C(=O)c3ccc(Cn4c(=S)[nH]c5ccc(N6CCOCC6)cc5c4=O)cc3)CC2)cc1		inactive: -1.22%
Cc1ccc(NC(=O)Nn2cnnc2)cc1Cl		inactive: -0.481%
Cc1ccc(-c2[nH]c(-c3ccc(C(=O)O)cc3)nc2-c2ccccc2)cc1		inactive: 3.16%
O=C(Cc1ccc([N+](=O)[O-])cc1)NCc1ccccn1	inconclusive: 89.1 µM [quencher, side channel, single point]	
COc1ccc(NC(=O)CN(C)C(=O)C(C)Sc2ccccc2)cc1 (stereo not given)	inconclusive: 89.1 µM [quencher, side channel, single point]	
Cc1ccccc1N1C(S)=C(C#N)C(=O)NC1c1cccs1 (stereo not given)	inconclusive: 39.8 µM [inhibitor, partial curve]	
Cc1ccc(S(=O)(=O)NN2C(=O)/C(=C/c3ccc(F)cc3)SC2=S)cc1	inconclusive: 39.8 µM [inhibitor, single point]	

A different layout for some results above.
COc1cc(OC)c(OC)cc1/C=C1\CCC/C(=C\c2cc(OC)c(OC)cc2OC)C1=O
  Potency: inconclusive: 28.2 µM [fluorescent, side channel, partial curve]
Cc1ccc(NC(=O)Nn2cnnc2)cc1Cl
  activity change, negative = inhibition: inactive: -0.481%
Cc1ccc(S(=O)(=O)NN2C(=O)/C(=C/c3ccc(F)cc3)SC2=S)cc1
  Potency: inconclusive: 39.8 µM [inhibitor, single point]
